This passage reports binding results from US20120207721A1.

Results are given in words; binding and its absence hold for the method and conditions named. Binding seen in cells or lysates may run through a third protein. Binding calls can cover weak binding; strength is not graded here.

For experiment [1], the target named is IRB (Homo sapiens (Human)). Put plainly: co-immunoprecipitation with anti-IR from DSP-crosslinked transfected CHO cells, Western blot with anti-SorCS1-leu.
The target in experiment [2] is IRA (Homo sapiens (Human)). Described as above.

B1: murine SorCS1 splice variant SorCS1-c (receptor)
chain: SGTEPEKIEPGEGASRSRRDMLKDGGQQGLGTGARDPGKATRFRMEELRLTSTTFALTGDSAHNQAMVHWSGHNSSVILILTKLYDYNLGSITESSLWRSTDYGTTYEKLNDKVGLKTILSYLYVCPTNKCKIMLLTDPEIESSLLISSDEGATYQKYRLNFYLQSLLFHPKQEDWILAYSQDQKLYSSAEFGRRWQLIQESVVPNRFYWSVMGSSKEPDLVHLEARTVDGHSIYLTCRMQNCTEANRNKPFPGYIDPDSLIVQDDYVFVQLTSGGRPHYYVSYRRSPFAQMKLPKYALPKDMHVISTDENQVFAAVQEWNQNDTYNLYISDTRGVYFTLALENVRSSRGPEGNVMIDLYEVAGIKGMFLANKKIDNQVKTFITYNKGRDWRLLQAPDADLRGDPVHCLLPYCSLHLHLKVSENPYTSGIIASRDTAPSIIVASGNIGSELSDSDISMFVSSDAGNTWRQIFEEEHSILYLDQGGVLVAMKHTSLPIRHLWLSFDEGRSWSKYSFTSIPLFVDGVLGEPGEETLIMTVFGHFSHRSEWQLVKVDYKSIFDRRCAEEDYRPWQLHSQGEACIMGAKRIYKKRKSERKCMQKYAGAMESEPCVCTEADFDCDYGYERHSNGQCLPAFWFNPSSLSKDCSLGQSYLNSAGYRKVVSNNCTDGVREQYTAKPQKCPGKAPRGLRIVTADGKLTAEQGHNVTLMVQLEEGDVQRTLIQVDFGDGIAVSYVNLSSMEDGIKHVYQNVGIFRVTVQVDNSLGSDSAVLYLHVTCPLEHVHLSLPFVTTKNKEVNATAVLWPSQVGTLTYVWWYGNNTEPLITLEGSISFKFTSEGMNTITVQVSAGNAILQDTKTIAVYEEFRSLRLAFSPNLDDYNPDIPEWRRDISRVIKKSLVEATGIPSQHILVAVLPGLPTAAELFVLPYQDGTRENKRSPEDLEQISEVLIHKLNQNLVHFELKPGVQVLVHAAHLTAAPLVDLTPTHSGSAMLMLLSVVFVGLAVFVIYKFKRKIPGINVYAQMQNEKEQELINPVSHSESRPSVPHPDLRRPGQLVDEKVESQLLGK
With B1, the binding result in experiment [1] and in experiment [2] was “binds” in each case.

B2: murine SorCS1 splice variant SorCS1-b (receptor)
chain: SGTEPEKIEPGEGASRSRRDMLKDGGQQGLGTGARDPGKATRFRMEELRLTSTTFALTGDSAHNQAMVHWSGHNSSVILILTKLYDYNLGSITESSLWRSTDYGTTYEKLNDKVGLKTILSYLYVCPTNKCKIMLLTDPEIESSLLISSDEGATYQKYRLNFYLQSLLFHPKQEDWILAYSQDQKLYSSAEFGRRWQLIQESVVPNRFYWSVMGSSKEPDLVHLEARTVDGHSIYLTCRMQNCTEANRNKPFPGYIDPDSLIVQDDYVFVQLTSGGRPHYYVSYRRSPFAQMKLPKYALPKDMHVISTDENQVFAAVQEWNQNDTYNLYISDTRGVYFTLALENVRSSRGPEGNVMIDLYEVAGIKGMFLANKKIDNQVKTFITYNKGRDWRLLQAPDADLRGDPVHCLLPYCSLHLHLKVSENPYTSGIIASRDTAPSIIVASGNIGSELSDSDISMFVSSDAGNTWRQIFEEEHSILYLDQGGVLVAMKHTSLPIRHLWLSFDEGRSWSKYSFTSIPLFVDGVLGEPGEETLIMTVFGHFSHRSEWQLVKVDYKSIFDRRCAEEDYRPWQLHSQGEACIMGAKRIYKKRKSERKCMQKYAGAMESEPCVCTEADFDCDYGYERHSNGQCLPAFWFNPSSLSKDCSLGQSYLNSAGYRKVVSNNCTDGVREQYTAKPQKCPGKAPRGLRIVTADGKLTAEQGHNVTLMVQLEEGDVQRTLIQVDFGDGIAVSYVNLSSMEDGIKHVYQNVGIFRVTVQVDNSLGSDSAVLYLHVTCPLEHVHLSLPFVTTKNKEVNATAVLWPSQVGTLTYVWWYGNNTEPLITLEGSISFKFTSEGMNTITVQVSAGNAILQDTKTIAVYEEFRSLRLAFSPNLDDYNPDIPEWRRDISRVIKKSLVEATGIPSQHILVAVLPGLPTAAELFVLPYQDGTRENKRSPEDLEQISEVLIHKLNQNLVHFELKPGVQVLVHAAHLTAAPLVDLTPTHSGSAMLMLLSVVFVGLAVFVIYKFKRRVALPSPPSPSAQPGDSSLRLQRPRPATPPSSPKRGSAGAQFAI
In the case of B2, the binding entry in experiment [1] and in experiment [2] was “binds” throughout.
